Experimental data published in PubChem BioAssay AID256 (DTP/NCI, 2004).
The list is a part of this screen's results and no random one: it is rich in T/C values a quarter to a half above the control, in often repeated tests (any T/C) and in doses without a T/C. Further doses and runs are listed elsewhere. T/C is the treated group as % of the vehicle group. Some doses have a count of surviving animals in place of a T/C: the source files T/C as zero there, which appears to mark a toxic dose or a test without result, not a measured value. Some survivor counts are full or nearly so, which does not show that the dose was tolerated: the source hardly ever lists a survival T/C far under the control, and the zero likely stands for such cases as well. Counts of survivors are from the toxicity check (mostly the fifth day) where no day follows; animals may have died later. Schedule codes are those of the source, read here as Q, the interval in days (D) or hours (H), X, the number of doses. Some structures stand for samples that the source files as different forms (salt, stereo form or complex); doses refer to the form tested. For survival time, the PubChem record calls one and a half times the control and up active, and a quarter to a half above the control has no call in these data; cut-offs in other NCI protocols can differ.

Tested on: CD2F1 mice, L1210 leukemia ip, survival T/C
Test: NCI In Vivo Anticancer Drug Screen. Data for tumor model L1210 Leukemia (intraperitoneal) in CD2F1 (CDF1) mice
Conditions: higher T/C = longer survival
Procedure, shortened: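 Each value reflects a quotient of treated over vehicle control outcomes in mice with a transplanted tumor.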

[1] = T/C endpoint: mean survival time, dose: 200.0 mg/kg/injection, schedule: Q04DX002 (ip), vehicle: saline with Tween-80
[2] = T/C endpoint: mean survival time, dose: 400.0 mg/kg/injection, schedule: Q04DX002 (ip), vehicle: saline with Tween-80
[3] = T/C endpoint: mean survival time, dose: 150.0 mg/kg/injection, schedule: Q01DX001 (ip), vehicle: saline
[4] = T/C endpoint: mean survival time, dose: 300.0 mg/kg/injection, schedule: Q01DX001 (ip), vehicle: saline

CCOC(=O)/N=[N+](\[O-])c1ccccc1
survivor count (T/C endpoint: median survival time, dose: 25.0 mg/kg/injection, schedule: Q01DX009 (ip), vehicle: saline with Tween-80): 0 of 6
survivor count (T/C endpoint: median survival time, dose: 50.0 mg/kg/injection, schedule: Q01DX009 (ip), vehicle: saline with Tween-80): 0 of 6

C[N+]1(C)CCC(OC(=O)C(O)(c2ccccc2)C2CCCC2)C1 (centres undefined)
survivor count (T/C endpoint: mean survival time, dose: 25.0 mg/kg/injection, schedule: Q04DX003 (ip), vehicle: saline): 5 of 6
T/C (T/C endpoint: mean survival time, dose: 50.0 mg/kg/injection, schedule: Q04DX003 (ip), vehicle: saline): 130 % of control
survivor count (T/C endpoint: mean survival time, dose: 200.0 mg/kg/injection, schedule: Q01DX001 (ip), vehicle: saline): 1 of 3
survivor count (T/C endpoint: mean survival time, dose: 400.0 mg/kg/injection, schedule: Q01DX001 (ip), vehicle: saline): 0 of 3

NC(CSS(=O)(=O)O)=NCCCCN=C(N)CSS(=O)(=O)O
survivor count (T/C endpoint: mean survival time, dose: 100.0 mg/kg/injection, schedule: Q04DX002 (ip), vehicle: saline with Tween-80): 0 of 3
survivor count [1]: 0 of 3
survivor count [2]: 0 of 3

O=C(C[n+]1cc2ccccc2cc1Cl)c1ccccc1
survivor count (T/C endpoint: mean survival time, dose: 400.0 mg/kg/injection, schedule: Q04DX003 (ip), vehicle: Klucel (hydroxypropylcellulose) (HPC)): 4 of 6

CC[N+](CC)(CC)CCCNC1=CC(=O)C(NCCC[N+](CC)(CC)CC)=CC1=O
survivor count (T/C endpoint: mean survival time, dose: 100.0 mg/kg/injection, schedule: Q04DX003 (ip), vehicle: saline): 0 of 3
survivor count (T/C endpoint: mean survival time, dose: 200.0 mg/kg/injection, schedule: Q04DX003 (ip), vehicle: saline): 0 of 3
survivor count (T/C endpoint: mean survival time, dose: 400.0 mg/kg/injection, schedule: Q04DX003 (ip), vehicle: saline): 0 of 3

COc1cc(C)c(Cl)[n+]([O-])n1
survivor count (T/C endpoint: mean survival time, dose: 25.0 mg/kg/injection, schedule: Q04DX002 (ip), vehicle: saline with Tween-80): 1 of 3
survivor count (T/C endpoint: mean survival time, dose: 50.0 mg/kg/injection, schedule: Q04DX002 (ip), vehicle: saline with Tween-80): 0 of 3

CCc1cccc(CC)c1NC(N)=S
survivor count [1]: 0 of 3

CN(C)C(=O)CCC(NC(=O)c1ccc(N(C)Cc2cnc3nc(N)nc(N)c3n2)cc1)C(=O)O (centres undefined)
T/C (T/C endpoint: mean survival time, dose: 25.0 mg/kg/injection, schedule: Q01DX009 (ip), vehicle: sodium bicarbonate): 131 % of control
T/C (T/C endpoint: mean survival time, dose: 50.0 mg/kg/injection, schedule: Q01DX009 (ip), vehicle: sodium bicarbonate): 144 % of control

CCOC(=O)c1ccc(NC(=O)Oc2ccc(NC(C)=O)cc2)cc1
survivor count [2]: 3 of 3

O=C1C=CC(=O)N1CO
survivor count (T/C endpoint: mean survival time, dose: 14.5 mg/kg/injection, schedule: Q04DX003 (ip), vehicle: saline): 0 of 6
survivor count (T/C endpoint: mean survival time, dose: 22.0 mg/kg/injection, schedule: Q04DX003 (ip), vehicle: saline): 0 of 6
survivor count (T/C endpoint: mean survival time, dose: 33.0 mg/kg/injection, schedule: Q04DX003 (ip), vehicle: saline): 0 of 6

CC1(C)OC2C(/C=C\C(=O)c3ccccc3)OC(n3ccc(=O)[nH]c3=O)C2O1 (centres undefined)
survivor count (T/C endpoint: mean survival time, dose: 200.0 mg/kg/injection, schedule: Q01DX005 (ip), vehicle: distilled water + Tween-80): 1 of 6

CC(C)(C)C1(C)CC1(Br)Br (centres undefined)
survivor count (T/C endpoint: mean survival time, dose: 400.0 mg/kg/injection, schedule: Q04DX003 (ip), vehicle: saline with Tween-80): 6 of 6

Nc1ncnc2c1c(C(=O)NO)cn2C1OC(CO)C(O)C1O (centres undefined)
T/C (T/C endpoint: mean survival time, dose: 12.5 mg/kg/injection, schedule: Q01DX001 (ip), vehicle: water): 148 % of control
T/C (T/C endpoint: mean survival time, dose: 25.0 mg/kg/injection, schedule: Q01DX001 (ip), vehicle: water): 146 % of control

O=C(NC(=S)Nc1cc(Cl)ccc1O)c1cccc(Br)c1
survivor count (T/C endpoint: mean survival time, dose: 200.0 mg/kg/injection, schedule: Q01DX001 (ip), vehicle: saline with Tween-80): 3 of 3
survivor count (T/C endpoint: mean survival time, dose: 400.0 mg/kg/injection, schedule: Q01DX001 (ip), vehicle: saline with Tween-80): 3 of 3

Cn1c(C[N+](C)(C)C)cc2ccccc21
survivor count (T/C endpoint: mean survival time, dose: 200.0 mg/kg/injection, schedule: Q01DX009 (ip), vehicle: saline): 1 of 6

O=C1NCCCS1(=O)=O
survivor count [3]: 1 of 6
survivor count [4]: 0 of 6

COc1ccccc1N1CCCSC1=Nc1ccccc1
survivor count (T/C endpoint: mean survival time, dose: 400.0 mg/kg/injection, schedule: Q04DX002 (ip), vehicle: saline): 0 of 3

C[P+]1(c2ccccc2)c2ccccc2Oc2ccccc21
survivor count [3]: 0 of 6
survivor count [4]: 0 of 6
